The source of these data is PMC2724103.

For this experiment, the target named is T1, GST-GAP (SptP GAP domain, residues 162-290) (Salmonella enterica serovar Typhimurium) (UniProt P74873).
T1 sequence: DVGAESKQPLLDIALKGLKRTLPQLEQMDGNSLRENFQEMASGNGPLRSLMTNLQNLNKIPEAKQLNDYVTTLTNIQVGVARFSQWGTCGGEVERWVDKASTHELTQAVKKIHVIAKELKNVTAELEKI
In words: pull-down; GST fusions on glutathione Sepharose 4B beads in binding buffer (20 mM Tris-HCl pH 7.4, 150 mM NaCl, 1 mM MgCl2, 0.5 mM ATP, 1 mM GTP, 0.5 mM DTT), incubated with equimolar His-tagged VCP (RT, 10 min); washed; eluted with 1 M NaCl, then 10 mM reduced glutathione; Coomassie SDS-PAGE; both purified.

No constants are given. Whether binding was seen depends on the method and setting. Sequences can lack the tags named with a protein.

Take “His-tagged VCP (VCP^WT), recombinant (rat)”: the binding result was “no binding”.
